Data as given in PubChem BioAssay AID1224826 (NIAID, 2016)
Screen: 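Genes that change LPS-induced Tnf promoter activity in mouse macrophages when knocked down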 (primary screen). Cells: RAW264.7 G9 macrophages from mouse bearing reporters for p65 (GFP) and the Tnf promoter (mCherry). Reagents: siRNA pool against mouse genes, 100 nM. Time to read-out: 16 h of LPS stimulation, after 2 days of siRNA transfection. Challenge: bacterial lipopolysaccharide (Salmonella minnesota R595), 10 ng/ml. Read-out: 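Imaged Tnf reporter mCherry in nuclei, minus background, normalised per plate to the median and expressed as robust z-scores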. Reading the numbers: Tnf reporter robust z-score: higher = stronger Tnf promoter reporter signal after LPS. Active means: 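a well counts as active at a score of -1.3 or below (Tlr4 knock-down control median) or above 3 (raised signal); controls and wells holding fewer than 50 cells are excluded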. Meaning of the calls: active = Tnf reporter clearly lowered or raised; inactive = no clear change in Tnf reporter.
The whole screen tested about 17,000 reagents; below is a random part of them. In the full data, about 1,110 (6.6%) got an active call. 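Active means lowered or raised reporter signal; replicate intensities are raw and not normalised per plate.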 Reagents against one gene are numbered here. Not all columns of the deposit are shown.

target gene | reagent no. | Tnf reporter robust z-score | fewer than 50 cells in well | activity call
Desi1 | 1 | -0.33 | enough cells in well | inactive
Zup1 | 1 | 2.41 | enough cells in well | inactive
Klrb1b | 1 | -0.85 | enough cells in well | inactive
Klrb1b | 2 | -1.03 | enough cells in well | inactive
Dmac2 | 1 | – | fewer than 50 cells per well; well left out of calls | inactive
Olfm3 | 1 | 3.05 | enough cells in well | active
Muc1 | 1 | -0.45 | enough cells in well | inactive
1700018B24Rik | 1 | -0.99 | enough cells in well | inactive
Or5b117 | 1 | -0.63 | enough cells in well | inactive
Aco1 | 1 | -0.17 | enough cells in well | inactive
Cxadr | 1 | 0.19 | enough cells in well | inactive
Ano10 | 1 | 1.26 | enough cells in well | inactive
Hoxb1 | 1 | 0.54 | enough cells in well | inactive
Ing3 | 1 | 1.48 | enough cells in well | inactive
Pde12 | 1 | -0.06 | enough cells in well | inactive
Gbp9 | 1 | -1.36 | enough cells in well | active
Ptp4a3 | 1 | -0.48 | enough cells in well | inactive
Lamc3 | 1 | 0.24 | enough cells in well | inactive
Gnal | 1 | -1.15 | enough cells in well | inactive
Zfhx4 | 1 | -1.15 | enough cells in well | inactive
Tas2r106 | 1 | – | fewer than 50 cells per well; well left out of calls | inactive
Myl1 | 1 | -1.75 | enough cells in well | active
Cep19 | 1 | 0.71 | enough cells in well | inactive
Arhgap45 | 1 | -0.68 | enough cells in well | inactive

The list goes on; the last 3 above are carried over.
target gene | reagent no. | Tnf reporter robust z-score | fewer than 50 cells in well | activity call
Myl1 | 1 | -1.75 | enough cells in well | active
Cep19 | 1 | 0.71 | enough cells in well | inactive
Arhgap45 | 1 | -0.68 | enough cells in well | inactive
A530013C23Rik | 1 | -0.06 | enough cells in well | inactive
Fdxr | 1 | 0.23 | enough cells in well | inactive
Brms1l | 1 | 1.08 | enough cells in well | inactive
Cdca5 | 1 | – | fewer than 50 cells per well; well left out of calls | inactive
Pfn2 | 1 | -0.32 | enough cells in well | inactive
Dennd5a | 1 | 0.45 | enough cells in well | inactive
Spdef | 1 | -0.76 | enough cells in well | inactive
Lrrn2 | 1 | 2.55 | enough cells in well | inactive
Gstp3 | 1 | 1.82 | enough cells in well | inactive
Tgfa | 1 | -0.41 | enough cells in well | inactive
Npepps | 1 | -0.6 | enough cells in well | inactive
Igf1r | 1 | -1.09 | enough cells in well | inactive
Or2a25 | 1 | 1.83 | enough cells in well | inactive
Gm5084 | 1 | -0.84 | enough cells in well | inactive
Msl3l2 | 1 | 1.13 | enough cells in well | inactive
Rnf133 | 1 | -1.16 | enough cells in well | inactive
